We go through one compound from patent publication US20220135526A1, “QUATERNARY AMMONIUM SALT COMPOUND, PREPARATION METHOD THEREFOR AND USE THEREOF” (WEST CHINA HOSPITAL, SICHUAN UNIVERSITY, priority 2019, published 2022).

The subject of this assay is back skin of SD rat. As to the kind of experiment: Local anesthetic effect by subcutaneous infiltration (back skin, Von Frey fiber 100 g). The assay is classed as in vivo. The following applies: SD rats, 0.5 mL subcutaneous in saline; compounds 6 mmol/L, controls 0.75% (22 mmol/L) and 2% (74 mmol/L). The protocol: After the back of SD rat weighing 250-300 g (half female and half male) was shaved and disinfected, a circle with a diameter of about 1.5 cm was drawn on the side of the exposed back, and the circle is divided into 6 equal parts. […] Among the Von Frey fiber yarns, the one with a strength of 100 g was bound to the needle for local skin stimulation. One minute After the drug was injected, the above method was used to stimulate in 6 divisions. […] If back skin contraction was observed, the local anesthetic effect was considered as loss. […] Each compound was tested with 10 rats.

Counter-ions that a name gives are not always drawn.

For the compound `CCN(CC)CC(=O)Nc1c(C)cccc1C` [2% lidocaine hydrochloride, lidocaine hydrochloride, reference compound], the “Duration of local anesthesia (median)” value was 4 h.
